The record followed here is patent publication US20250222062A1, “PEPTIDE INHIBITORS TARGETING THE TBL1-BETA-CATENIN COMPLEX” (THE TRANSLATIONAL GENOMICS RESEARCH INSTITUTE, priority 2022, published 2025).

This assay concerns the target T1, Transducin Beta-like protein 1 (TBL1) (UniProt O60907).
T1 sequence (looked up): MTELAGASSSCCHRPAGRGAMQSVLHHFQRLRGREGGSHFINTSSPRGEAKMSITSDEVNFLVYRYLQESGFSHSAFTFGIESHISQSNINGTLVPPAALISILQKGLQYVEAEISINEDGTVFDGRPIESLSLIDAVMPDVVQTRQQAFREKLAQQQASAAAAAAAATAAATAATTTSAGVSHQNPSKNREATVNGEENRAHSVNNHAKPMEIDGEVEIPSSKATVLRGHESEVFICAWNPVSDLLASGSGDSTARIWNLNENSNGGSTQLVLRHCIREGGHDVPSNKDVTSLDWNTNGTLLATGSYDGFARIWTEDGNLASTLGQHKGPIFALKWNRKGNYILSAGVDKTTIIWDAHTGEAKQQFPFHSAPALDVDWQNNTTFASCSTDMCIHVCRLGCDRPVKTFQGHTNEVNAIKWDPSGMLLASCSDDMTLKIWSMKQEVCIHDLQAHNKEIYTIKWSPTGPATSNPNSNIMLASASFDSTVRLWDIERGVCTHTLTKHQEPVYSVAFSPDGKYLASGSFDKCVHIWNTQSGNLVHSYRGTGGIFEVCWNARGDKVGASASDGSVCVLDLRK
Put plainly: ELISA, dansyl fluorescence of the tagged peptide on TBL1 protein. Background: An ELISA detects its analyte on a solid surface through an enzyme-linked reagent.

These are yes or no findings as the source states them, for the method shown. Some results given as binding are weak or reduced against the parent protein; the word gives no strength. Where a sequence is shown, tags or fusion partners need not be part of it.

With VVTCAAGILSNLTCNNYKNKMMVCQVGGIEALVRTVLRAGDRED (dansyl tag (position not given)) [dansyl-tagged Peptide 5], the binding result was “binds”.
In the case of NQESKLIILASGGPQALVNIMRTYTYEKLLWTTSRVLKVLSVCS (dansyl tag (position not given)) [dansyl-tagged Peptide 3] it was “binds”.
LKVLSVCSSNKPAIVEAGGMQALGLHLTDPSQRLVQNCLWTLRN (dansyl tag (position not given)) [dansyl-tagged Peptide 4]: the binding entry is “binds”.
In the case of HQLSKKEASRHAIMRSPQMVSAIVRTMQNTNDVETARCTAGTLH (dansyl tag (position not given)) [dansyl-tagged Peptide 1] it was “binds”; in that of VDSVLFYAITTLHNLLLHQEGAKMAVRLAGGLQKMVALLNKTNV (dansyl tag (position not given)) [dansyl-tagged Peptide 2], “binds”.
